From the supplement of paper PMC10849652
The list shows a part of the results.

Sequences of proteins named here, by UniProt entry; tags and fusion partners are left off. A change or cut given only in a name is not applied to a line headed by its entry.
UniProt Q7L5N1: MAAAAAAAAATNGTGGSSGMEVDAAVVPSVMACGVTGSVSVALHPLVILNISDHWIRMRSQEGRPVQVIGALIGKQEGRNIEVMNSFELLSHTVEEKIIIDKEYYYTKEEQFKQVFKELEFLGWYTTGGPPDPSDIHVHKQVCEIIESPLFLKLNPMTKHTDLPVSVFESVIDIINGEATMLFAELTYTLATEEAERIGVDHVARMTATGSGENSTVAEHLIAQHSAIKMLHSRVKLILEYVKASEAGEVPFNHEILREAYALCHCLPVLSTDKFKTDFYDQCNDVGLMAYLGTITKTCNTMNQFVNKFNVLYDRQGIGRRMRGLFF
UniProt Q8N684: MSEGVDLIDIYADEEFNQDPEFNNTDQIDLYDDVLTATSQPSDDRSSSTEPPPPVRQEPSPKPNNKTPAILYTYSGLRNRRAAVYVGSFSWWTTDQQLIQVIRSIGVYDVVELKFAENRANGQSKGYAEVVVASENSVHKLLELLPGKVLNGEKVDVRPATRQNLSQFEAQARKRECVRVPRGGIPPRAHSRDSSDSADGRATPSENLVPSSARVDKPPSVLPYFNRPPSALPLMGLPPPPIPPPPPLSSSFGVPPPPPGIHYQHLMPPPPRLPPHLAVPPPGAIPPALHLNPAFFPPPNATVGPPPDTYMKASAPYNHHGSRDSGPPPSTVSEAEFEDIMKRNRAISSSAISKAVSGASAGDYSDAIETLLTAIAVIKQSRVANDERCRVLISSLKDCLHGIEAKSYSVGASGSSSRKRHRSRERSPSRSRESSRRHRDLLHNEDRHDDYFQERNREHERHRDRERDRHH
UniProt Q99807: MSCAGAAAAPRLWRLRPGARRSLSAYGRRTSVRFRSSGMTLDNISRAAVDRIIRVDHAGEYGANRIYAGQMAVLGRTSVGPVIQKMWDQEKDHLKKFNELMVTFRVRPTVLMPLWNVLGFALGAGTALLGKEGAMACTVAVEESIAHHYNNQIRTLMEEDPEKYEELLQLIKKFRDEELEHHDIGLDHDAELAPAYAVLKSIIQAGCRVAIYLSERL
UniProt Q96BR5: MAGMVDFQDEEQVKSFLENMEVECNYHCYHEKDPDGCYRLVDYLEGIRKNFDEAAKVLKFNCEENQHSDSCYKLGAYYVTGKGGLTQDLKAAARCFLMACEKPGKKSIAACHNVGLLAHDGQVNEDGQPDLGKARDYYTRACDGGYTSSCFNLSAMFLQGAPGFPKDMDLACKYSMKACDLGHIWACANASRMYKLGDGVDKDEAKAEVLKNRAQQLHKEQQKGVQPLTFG
UniProt O75208: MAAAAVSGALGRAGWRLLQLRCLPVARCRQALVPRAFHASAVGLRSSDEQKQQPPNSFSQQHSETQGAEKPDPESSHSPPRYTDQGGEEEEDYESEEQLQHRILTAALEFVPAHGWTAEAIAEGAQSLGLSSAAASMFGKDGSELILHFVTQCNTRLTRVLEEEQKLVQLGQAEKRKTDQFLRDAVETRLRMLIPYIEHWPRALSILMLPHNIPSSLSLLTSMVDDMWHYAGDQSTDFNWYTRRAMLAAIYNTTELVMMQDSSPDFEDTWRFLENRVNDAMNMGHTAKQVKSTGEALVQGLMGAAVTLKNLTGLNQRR
UniProt Q14746: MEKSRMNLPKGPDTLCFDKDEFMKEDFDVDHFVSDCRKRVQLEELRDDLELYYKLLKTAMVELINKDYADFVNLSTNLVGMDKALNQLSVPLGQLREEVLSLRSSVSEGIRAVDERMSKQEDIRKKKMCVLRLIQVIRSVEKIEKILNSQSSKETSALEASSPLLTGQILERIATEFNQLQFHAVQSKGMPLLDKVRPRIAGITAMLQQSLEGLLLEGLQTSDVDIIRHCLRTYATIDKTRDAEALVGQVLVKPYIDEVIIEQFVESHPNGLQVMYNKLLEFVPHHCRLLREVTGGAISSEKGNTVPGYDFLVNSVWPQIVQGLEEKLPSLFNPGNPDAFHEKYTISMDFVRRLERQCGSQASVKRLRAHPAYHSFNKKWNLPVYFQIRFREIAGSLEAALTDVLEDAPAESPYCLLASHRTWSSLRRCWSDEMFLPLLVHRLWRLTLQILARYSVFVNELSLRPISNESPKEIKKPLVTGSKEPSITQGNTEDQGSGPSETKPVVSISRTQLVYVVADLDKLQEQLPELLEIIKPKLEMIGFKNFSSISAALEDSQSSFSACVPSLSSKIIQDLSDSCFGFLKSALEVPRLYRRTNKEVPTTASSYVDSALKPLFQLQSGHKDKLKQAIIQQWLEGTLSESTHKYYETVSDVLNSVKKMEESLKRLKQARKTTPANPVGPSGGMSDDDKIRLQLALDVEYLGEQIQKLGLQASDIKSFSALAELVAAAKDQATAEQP
UniProt Q9UBI1, whole entry, looked up: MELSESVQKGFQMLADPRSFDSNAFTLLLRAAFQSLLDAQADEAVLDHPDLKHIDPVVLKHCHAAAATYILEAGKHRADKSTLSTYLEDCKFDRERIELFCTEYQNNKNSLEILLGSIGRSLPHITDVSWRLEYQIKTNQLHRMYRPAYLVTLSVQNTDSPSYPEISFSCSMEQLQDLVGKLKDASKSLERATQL
UniProt Q16630, whole entry, looked up: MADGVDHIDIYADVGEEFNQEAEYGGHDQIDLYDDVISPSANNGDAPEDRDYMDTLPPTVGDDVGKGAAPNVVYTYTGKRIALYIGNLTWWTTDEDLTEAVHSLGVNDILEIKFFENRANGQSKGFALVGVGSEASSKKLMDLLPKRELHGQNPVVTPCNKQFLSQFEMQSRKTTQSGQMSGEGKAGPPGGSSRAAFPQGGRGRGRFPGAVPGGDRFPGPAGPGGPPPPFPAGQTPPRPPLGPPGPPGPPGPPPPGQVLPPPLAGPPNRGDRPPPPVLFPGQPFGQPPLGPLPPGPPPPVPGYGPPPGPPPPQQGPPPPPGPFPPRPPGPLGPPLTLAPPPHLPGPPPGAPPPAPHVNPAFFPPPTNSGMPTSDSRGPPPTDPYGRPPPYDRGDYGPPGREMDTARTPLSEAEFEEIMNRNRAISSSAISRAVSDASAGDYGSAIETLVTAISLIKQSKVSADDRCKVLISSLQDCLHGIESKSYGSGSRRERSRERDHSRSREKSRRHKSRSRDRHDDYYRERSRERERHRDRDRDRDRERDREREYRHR
UniProt Q86VX2, whole entry, looked up: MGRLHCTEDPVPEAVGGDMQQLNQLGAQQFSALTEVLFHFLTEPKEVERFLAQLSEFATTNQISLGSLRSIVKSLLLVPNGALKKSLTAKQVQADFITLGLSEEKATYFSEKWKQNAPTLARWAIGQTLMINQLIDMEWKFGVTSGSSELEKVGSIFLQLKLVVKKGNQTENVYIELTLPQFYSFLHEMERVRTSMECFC
UniProt Q9Y2R0: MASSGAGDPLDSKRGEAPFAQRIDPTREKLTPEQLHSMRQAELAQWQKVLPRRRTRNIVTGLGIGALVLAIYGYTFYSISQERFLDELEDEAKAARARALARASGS
UniProt O95639, whole entry, looked up: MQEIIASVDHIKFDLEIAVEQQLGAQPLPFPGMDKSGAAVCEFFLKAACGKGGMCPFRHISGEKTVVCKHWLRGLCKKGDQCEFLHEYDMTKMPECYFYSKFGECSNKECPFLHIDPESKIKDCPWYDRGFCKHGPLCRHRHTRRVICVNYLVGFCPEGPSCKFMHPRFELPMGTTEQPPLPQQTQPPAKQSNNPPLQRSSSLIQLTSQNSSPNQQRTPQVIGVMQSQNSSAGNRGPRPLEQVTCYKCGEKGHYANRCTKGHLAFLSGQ
UniProt Q9UFF9, whole entry, looked up: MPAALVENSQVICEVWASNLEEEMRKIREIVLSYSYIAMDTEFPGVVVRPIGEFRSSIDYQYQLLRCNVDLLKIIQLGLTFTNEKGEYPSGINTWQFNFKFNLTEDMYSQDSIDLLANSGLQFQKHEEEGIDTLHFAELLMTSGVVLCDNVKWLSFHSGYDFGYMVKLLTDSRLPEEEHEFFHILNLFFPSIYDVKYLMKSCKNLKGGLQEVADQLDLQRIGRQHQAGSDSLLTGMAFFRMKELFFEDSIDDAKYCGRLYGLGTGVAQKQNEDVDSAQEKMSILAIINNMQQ
UniProt Q9NZN8, whole entry, looked up: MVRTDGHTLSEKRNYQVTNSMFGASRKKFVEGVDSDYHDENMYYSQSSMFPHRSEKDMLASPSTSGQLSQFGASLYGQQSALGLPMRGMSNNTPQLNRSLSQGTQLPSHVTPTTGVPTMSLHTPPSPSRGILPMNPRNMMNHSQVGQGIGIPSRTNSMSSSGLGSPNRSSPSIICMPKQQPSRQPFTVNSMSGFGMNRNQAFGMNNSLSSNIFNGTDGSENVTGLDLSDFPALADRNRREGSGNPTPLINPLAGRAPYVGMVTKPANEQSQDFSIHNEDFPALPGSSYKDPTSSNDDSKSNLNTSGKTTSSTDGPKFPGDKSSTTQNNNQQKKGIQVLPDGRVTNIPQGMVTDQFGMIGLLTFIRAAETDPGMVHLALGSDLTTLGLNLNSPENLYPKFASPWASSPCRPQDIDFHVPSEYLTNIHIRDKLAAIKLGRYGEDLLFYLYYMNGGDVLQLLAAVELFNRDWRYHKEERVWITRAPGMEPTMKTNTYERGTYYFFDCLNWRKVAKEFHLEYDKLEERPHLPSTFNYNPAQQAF
UniProt Q9UBW8: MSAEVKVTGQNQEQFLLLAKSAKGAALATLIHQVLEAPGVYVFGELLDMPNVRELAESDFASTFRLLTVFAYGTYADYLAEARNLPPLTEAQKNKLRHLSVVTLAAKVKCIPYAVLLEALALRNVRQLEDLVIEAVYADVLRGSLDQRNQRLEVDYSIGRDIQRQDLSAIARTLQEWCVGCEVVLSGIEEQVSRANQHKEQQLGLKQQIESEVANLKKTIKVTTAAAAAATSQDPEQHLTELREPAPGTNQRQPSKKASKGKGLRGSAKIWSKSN
UniProt Q8N129: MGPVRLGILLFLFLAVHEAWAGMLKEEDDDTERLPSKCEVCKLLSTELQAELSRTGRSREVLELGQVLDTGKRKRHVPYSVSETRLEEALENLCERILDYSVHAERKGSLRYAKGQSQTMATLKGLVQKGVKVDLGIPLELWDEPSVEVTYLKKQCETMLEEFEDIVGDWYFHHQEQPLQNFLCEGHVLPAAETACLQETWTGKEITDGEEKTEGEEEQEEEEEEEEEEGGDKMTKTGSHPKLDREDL
UniProt Q8NI60: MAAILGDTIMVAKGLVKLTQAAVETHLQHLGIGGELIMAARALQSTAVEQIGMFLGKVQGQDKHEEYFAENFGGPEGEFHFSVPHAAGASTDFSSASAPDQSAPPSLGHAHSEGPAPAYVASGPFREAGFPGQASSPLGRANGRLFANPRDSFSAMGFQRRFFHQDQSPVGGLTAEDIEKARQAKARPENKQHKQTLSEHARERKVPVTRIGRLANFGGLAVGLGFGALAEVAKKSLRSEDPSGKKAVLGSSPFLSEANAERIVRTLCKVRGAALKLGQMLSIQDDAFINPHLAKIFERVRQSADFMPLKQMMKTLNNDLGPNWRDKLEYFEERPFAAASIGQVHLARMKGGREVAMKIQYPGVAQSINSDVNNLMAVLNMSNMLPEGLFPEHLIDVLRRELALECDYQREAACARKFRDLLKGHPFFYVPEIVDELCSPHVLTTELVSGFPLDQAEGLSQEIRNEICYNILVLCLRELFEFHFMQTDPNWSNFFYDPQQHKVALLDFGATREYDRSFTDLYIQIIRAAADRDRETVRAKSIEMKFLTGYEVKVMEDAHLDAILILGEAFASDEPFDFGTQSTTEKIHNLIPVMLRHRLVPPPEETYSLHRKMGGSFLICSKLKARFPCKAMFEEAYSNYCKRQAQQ

How the values were obtained:
Experiment in all cases: log2 fold change, soluble protein after heating vs DMSO (PISA); higher = thermal stabilisation; K562 lysate, 10 uM; active = over 0.2 and 3.5 SD of the protein, either way, in both replicates (recomputed)
erlotinib = compound: C#Cc1cccc(Nc2ncnc3cc(OCCOC)c(OCCOC)cc23)c1 [erlotinib]
Method in brief: (§1)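 Dounce homogenisation of K562 pellets in PBS pH 7.4 with 1 mM MgCl2 produced a crude extract, used at 1 mg/mL protein. Exposure to 10 μM compound lasted 30 min, and aliquots were then heated for 3 min across 48°C-58°C, pooled and brought to 0.5% NP-40 at 4°C. The supernatant after 21,000xg for 90 min was quantified by TMTpro 16plex LC-MS/MS with channel sums equalised. Duplicate values are given as log-two fold change in thermal stability relative to solvent controls.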

[1] = compound: C/C(=N\NC(=O)C1=CC(=CC=C1)S(=O)(=O)N2CCOCC2)/C3=C(C=CC(=C3)Cl)O
Method in brief: as §1

[2] = compound: C1=CC(=CC=C1C2=NC3=C(N2)C=C(C=C3)C(=O)N)OC4=CC=C(C=C4)Cl
Method in brief: as §1

[3] = compound: C1=CC2=C(C=CC(=C2)/C=C\3/C(=O)NC(=NCC4=CC=CS4)S3)N=C1
Method in brief: as §1

[4] = compound: C1=CC2=NC=CN=C2C=C1/C=C/3\C(=O)NC(=O)S3
Method in brief: as §1

[5] = compound: C1=CC=C(C=C1)C2=NC(=C(N2)C3=CC=NC=C3)C4=CC(=C(C=C4)Cl)O
Method in brief: as §1

[6] = compound: C1=CC=C2C(=C1)C3=NNC4=CC=CC(=C43)C2=O
Method in brief: as §1

[7] = compound: C1CCN(C1)C(=O)NC2=CC=CC(=C2)NC3=NC=C(C(=N3)NCCC4=CN=CN4)Br
Method in brief: as §1

[8] = compound: C1CN(CCC1(CC2=CC=C(C=C2)Cl)N)C3=NC=NC4=C3C=CN4
Method in brief: as §1

IRAK-1-4 Inhibitor I = compound: C1COCCN1CCN2C3=CC=CC=C3N=C2NC(=O)C4=CC(=CC=C4)[N+](=O)[O-] [IRAK-1-4 Inhibitor I]
Method in brief: as §1

ibrutinib = compound: C=CC(=O)N1CCC[C@@H](n2nc(-c3ccc(Oc4ccccc4)cc3)c3c(N)ncnc32)C1 [ibrutinib]
Method in brief: as §1

[9] = compound: CC(=O)c1cnc2ccc(-c3cc(Cl)c(O)c(Cl)c3)nc2c1N[C@H]1CC[C@H](CN(C)C)CC1
Method in brief: as §1

ralimetinib = compound: CC(C)(C)Cn1c(N)nc2ccc(-c3[nH]c(C(C)(C)C)nc3-c3ccc(F)cc3)nc21 [ralimetinib]
Method in brief: as §1

[10] = compound: CC(C)(O)CC(=O)NCCn1ccc2ncnc(Nc3ccc(Oc4cccc(C(F)(F)F)c4)c(Cl)c3)c21
Method in brief: as §1

[11] = compound: CC(C)C1=C2N=C(C=C(N2N=C1)NCC3=CC=CC=C3)NCCCCCCN
Method in brief: as §1

[12] = compound: CC1=C(C(CC(=O)N1)C2=CC=C(C=C2)C(F)(F)F)C(=O)NC3=C(C=C4C(=C3)C=NN4)F
Method in brief: as §1

[13] = compound: CC1=C(C2=C(C=C1)C(=O)C3=CC=CC=C3N2CCCN)C
Method in brief: as §1

[14] = compound: CC1=C(C=C(C=C1)NC(=O)C2=CC(=CC=C2)C(C)(C)C#N)NC3=CC4=C(C=C3)N=CN(C4=O)C
Method in brief: as §1

[15] = compound: CC1=C(C=C(C=C1)NC(=O)C2=CC(=CC=C2)N(C)C)NC(=O)C3=CC=C(C=C3)O
Method in brief: as §1

[16] = compound: CC1=CC=C(C=C1)SC2=C3C=C(SC3=CN=C2)C(=O)N
Method in brief: as §1

| Target | log2 fold change (erlotinib) | log2 fold change [1] | log2 fold change [2] | log2 fold change [3] | log2 fold change [4] | log2 fold change [5] | log2 fold change [6] | log2 fold change [7] | log2 fold change [8] | log2 fold change (IRAK-1-4 Inhibitor I) | log2 fold change (ibrutinib) | log2 fold change [9] | log2 fold change (ralimetinib) | log2 fold change [10] | log2 fold change [11] | log2 fold change [12] | log2 fold change [13] | log2 fold change [14] | log2 fold change [15] | log2 fold change [16] |
| --- | --- | --- | --- | --- | --- | --- | --- | --- | --- | --- | --- | --- | --- | --- | --- | --- | --- | --- | --- | --- |
| COPS6 (UniProt Q7L5N1) | inactive: -0.043 | inactive: 0.035 | inactive: -0.02 | inactive: 0.04 | inactive: -0.03 | inactive: 0.019 | inactive: 0.018 | inactive: 0 | inactive: -0.055 | inactive: 0.037 | inactive: 0.036 | inactive: 0.021 | inactive: -0.011 | inactive: 0.009 | inactive: -0.071 | inactive: -0.038 | inactive: 0.031 | inactive: 0.045 | inactive: -0.026 | inactive: 0.036 |
| CPSF7 isoform 3 (UniProt Q8N684) | inactive: -0.009 | inactive: -0.041 | inactive: 0.027 | inactive: -0.006 | inactive: -0.032 | inactive: -0.035 | inactive: 0.001 | inactive: -0.008 | inactive: 0.012 | inactive: -0.017 | inactive: 0.069 | inactive: 0.006 | inactive: 0.001 | inactive: 0.014 | inactive: -0.036 | inactive: 0.025 | inactive: 0.027 | inactive: -0.215 | inactive: -0.006 | inactive: 0.017 |
| COQ7 (UniProt Q99807) | inactive: -0.014 | inactive: -0.079 | inactive: 0.027 | inactive: 0.011 | inactive: -0.006 | inactive: -0.008 | inactive: -0.031 | inactive: 0.009 | inactive: 0.007 | inactive: 0.063 | inactive: 0.014 | inactive: 0.028 | inactive: 0.011 | inactive: -0.059 | inactive: -0.012 | inactive: -0.005 | inactive: -0.064 | inactive: 0.019 | inactive: 0.057 | inactive: -0.035 |
| COA7 (UniProt Q96BR5) | inactive: -0.013 | inactive: 0.029 | inactive: -0.034 | inactive: -0.015 | inactive: -0.006 | inactive: 0.05 | inactive: 0.019 | inactive: 0.025 | inactive: -0.041 | inactive: -0.021 | inactive: 0.087 | inactive: 0.015 | inactive: -0.002 | inactive: 0.045 | inactive: 0.009 | inactive: -0.009 | inactive: 0.001 | inactive: -0.044 | inactive: 0.032 | inactive: 0.012 |
| COQ9 (UniProt O75208) | inactive: -0.015 | inactive: -0.075 | inactive: -0.001 | inactive: 0.041 | inactive: 0.046 | inactive: 0 | inactive: -0.029 | inactive: -0.02 | inactive: 0.029 | inactive: -0.011 | inactive: 0.104 | inactive: 0.023 | inactive: 0.015 | inactive: -0.008 | inactive: -0.036 | inactive: 0.017 | inactive: 0.007 | inactive: -0.024 | inactive: 0.037 | inactive: 0 |
| COG2 (UniProt Q14746) | inactive: 0.009 | inactive: 0.036 | inactive: -0.021 | inactive: -0.022 | inactive: -0.032 | inactive: -0.017 | inactive: -0.001 | inactive: 0.011 | inactive: 0.031 | inactive: 0.03 | inactive: -0.029 | inactive: -0.023 | inactive: 0.017 | inactive: -0.017 | inactive: 0 | inactive: 0.023 | inactive: -0.035 | inactive: -0.019 | inactive: 0.062 | inactive: -0.009 |
| COMMD3 (UniProt Q9UBI1) | inactive: 0.051 | inactive: -0.098 | inactive: -0.018 | inactive: 0.072 | inactive: -0.044 | inactive: -0.01 | inactive: -0.03 | inactive: -0.018 | inactive: 0.02 | inactive: -0.021 | inactive: -0.042 | inactive: -0.051 | inactive: 0.009 | inactive: -0.025 | inactive: 0.015 | inactive: 0.001 | inactive: 0.023 | inactive: 0.04 | inactive: 0.026 | inactive: 0.034 |
| CPSF6 isoform 2 (UniProt Q16630) | inactive: 0 | inactive: 0 | inactive: -0.02 | inactive: 0.023 | inactive: -0.049 | inactive: -0.017 | inactive: 0.05 | inactive: 0.009 | inactive: -0.002 | inactive: -0.037 | inactive: 0.055 | inactive: 0.006 | inactive: -0.001 | inactive: 0.001 | inactive: 0.013 | inactive: 0 | inactive: -0.003 | inactive: -0.037 | inactive: 0.025 | inactive: -0.004 |
| COMMD7 (UniProt Q86VX2) | inactive: -0.015 | inactive: -0.082 | inactive: 0.035 | inactive: -0.02 | inactive: 0.018 | inactive: 0.014 | inactive: 0.017 | inactive: -0.033 | inactive: 0.039 | inactive: 0.03 | inactive: 0.018 | inactive: -0.007 | inactive: -0.001 | inactive: -0.048 | inactive: 0.027 | inactive: -0.018 | inactive: -0.036 | inactive: 0.029 | inactive: 0.003 | inactive: 0.021 |
| COA3 (UniProt Q9Y2R0) | inactive: -0.049 | inactive: -0.006 | inactive: 0.066 | inactive: 0.025 | inactive: 0.015 | inactive: 0 | inactive: -0.034 | inactive: -0.022 | inactive: 0.018 | inactive: 0.017 | inactive: 0.089 | inactive: -0.028 | inactive: -0.022 | inactive: -0.06 | inactive: -0.01 | inactive: -0.004 | inactive: -0.018 | inactive: 0.008 | inactive: 0.008 | inactive: -0.008 |
| CPSF4 (UniProt O95639) | inactive: 0.071 | inactive: 0.166 | inactive: 0.012 | inactive: -0.023 | inactive: -0.046 | inactive: 0.034 | inactive: -0.053 | inactive: 0.04 | inactive: 0.052 | inactive: -0.029 | inactive: 0.069 | inactive: -0.035 | inactive: -0.015 | inactive: -0.048 | inactive: -0.051 | inactive: -0.027 | inactive: 0.004 | inactive: -0.108 | inactive: 0.047 | inactive: -0.009 |
| CNOT8 (UniProt Q9UFF9) | inactive: 0.104 | inactive: -0.033 | inactive: -0.033 | inactive: 0 | inactive: -0.029 | inactive: 0.016 | inactive: -0.078 | inactive: -0.02 | inactive: 0.013 | inactive: -0.018 | inactive: -0.006 | inactive: -0.01 | inactive: 0.013 | inactive: 0.033 | inactive: -0.038 | inactive: 0.002 | inactive: -0.012 | inactive: 0.022 | inactive: -0.001 | inactive: 0.03 |
| CNOT2 (UniProt Q9NZN8) | inactive: 0.016 | inactive: 0.013 | inactive: 0.021 | inactive: 0.015 | inactive: -0.016 | inactive: -0.011 | inactive: 0.014 | inactive: 0.004 | inactive: 0.012 | inactive: 0.007 | inactive: 0.022 | inactive: 0.037 | inactive: 0.016 | inactive: -0.013 | inactive: -0.001 | inactive: -0.01 | inactive: 0.03 | inactive: 0.006 | inactive: -0.007 | inactive: 0.011 |
| COPS7A (UniProt Q9UBW8) | inactive: -0.058 | inactive: -0.003 | inactive: -0.004 | inactive: -0.042 | inactive: -0.041 | inactive: -0.014 | inactive: -0.028 | inactive: -0.003 | inactive: -0.054 | inactive: -0.003 | inactive: -0.011 | inactive: -0.009 | inactive: 0.027 | inactive: -0.002 | inactive: -0.05 | inactive: -0.015 | inactive: -0.003 | inactive: 0.004 | inactive: 0.004 | inactive: -0.024 |
| CNPY4 (UniProt Q8N129) | inactive: 0.047 | inactive: -0.068 | inactive: -0.015 | inactive: 0.049 | inactive: 0.016 | inactive: -0.085 | inactive: -0.034 | inactive: 0.045 | inactive: -0.03 | inactive: -0.012 | inactive: -0.004 | inactive: 0.01 | inactive: 0.013 | inactive: -0.263 | inactive: -0.023 | inactive: 0.009 | inactive: 0.06 | inactive: 0.033 | inactive: -0.053 | inactive: -0.07 |
| COQ8A (UniProt Q8NI60) | inactive: 0.154 | inactive: 0.014 | inactive: -0.057 | inactive: 0.008 | inactive: -0.083 | inactive: 0.029 | inactive: 0.105 | inactive: -0.01 | inactive: 0.007 | inactive: -0.034 | inactive: -0.061 | active: 0.611 | inactive: 0.143 | inactive: 0.115 | inactive: -0.009 | inactive: -0.139 | inactive: -0.074 | inactive: -0.04 | inactive: 0 | inactive: -0.068 |

Copied from the list:
In log2 fold change [14], COMMD7 (UniProt Q86VX2) shows inactive: 0.029
In log2 fold change (ibrutinib), CPSF4 (UniProt O95639) shows inactive: 0.069
